In article PMC6340896:
These are yes or no findings as the source states them, for the method shown. Binding can be weak; no strength is given.

By UniProt entry, the sequences of proteins in these tests, tags left out. Where a name states a change or a piece, a line headed by the entry shows the natural chain unless it says otherwise.
UniProt P05737: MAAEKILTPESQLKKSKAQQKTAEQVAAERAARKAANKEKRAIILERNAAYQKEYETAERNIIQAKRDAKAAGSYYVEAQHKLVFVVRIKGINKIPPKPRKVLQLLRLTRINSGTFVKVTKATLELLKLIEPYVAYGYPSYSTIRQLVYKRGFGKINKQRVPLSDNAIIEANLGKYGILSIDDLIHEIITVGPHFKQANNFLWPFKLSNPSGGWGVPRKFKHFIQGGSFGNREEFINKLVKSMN

B1: Mak16 (protein, UniProt P10962 1-306)
chain: MSDEIVWQVINQSFCSHRIKAPNGQNFCRNEYNVTGLCTRQSCPLANSKYATVKCDNGKLYLYMKTPERAHTPAKLWERIKLSKNYTKALQQIDEHLLHWSKFFRHKCKQRFTKLTQVMITERRLALREEERHYVGVAPKVKRREQNRERKALVAAKIEKAIEKELMDRLKSGAYGDKPLNVDEKVWKKIMGQMEEENSQDEEEDWDEEEESDDGEVEYVADDGEGEYVDVDDLEKWLADSDREASSASESESDSESESDSDSDEENKNSAKRRKKGTSAKTKRPKVEIEYEEEHEVQNAEQEVAQ
B2: Rrp1 (protein, UniProt P35178 1-278)
chain: METSNFVKQLSSNNRKTRVNALEALKKYLTAKQFKENKQIEFNKLWKGLYYAMWFSDRPRPQQRLANELGELHGLYFDPKDNSTADELTTNDKAFIKFSRGFWKVMCFEWFNIDRYRLDKYLLLIRRVLFSQLKYLQSRNWDKKLVDEYIKKVLRWLPLSGSPKVYTGIPIHIVDILLDEWERLLKDGDEDDEDEENKEEEMRKIAESAKKTPLADVIAIFQDIVADYNNSKVLREKIKEDLFSDTRLVSWDILEGETQHNDSSNESEEEEEEEWKGF

Tests used:
[1] = molecular target: ribosomal protein L4 (S. cerevisiae (endogenous in BY4741)); assay: cryo-EM structure; Rpf1-TAP pre-60S particle purified from yeast, Titan Krios 300 kV, 3.65 Å overall
[2] = molecular target: ribosomal protein L7 (S. cerevisiae (endogenous in BY4741)) (UniProt P05737); assay: as above

Row | Binder | binding [1] | binding [2]
1 | B1 | binds | –
2 | B2 | binds | binds
